Data taken from PubChem BioAssay AID328 (DTP/NCI, 2004).
The list does not hold the whole screen: it is rich in T/C values a quarter to a half above the control, in often repeated tests (any T/C) and in doses without a T/C. Further doses and runs are listed elsewhere. T/C gives the treated animals as a percentage of the vehicle group. Some doses have a count of surviving animals in place of a T/C: the source holds a T/C of zero for them, seemingly a mark for toxic or unscored doses. Some survivor counts are full or nearly so, which does not show that the dose was tolerated: survival well below the control is almost never listed, so the zero probably covers shortened survival too. Counts of survivors are from the toxicity check (mostly the fifth day) where no day follows; animals may have died later. Schedules are NCI's codes, taken here to give the interval after Q, in days (D) or hours (H), and the number of doses after X. Some entries hold several experiments; the results are listed from low to high. For survival time, this PubChem deposit counts one and a half times the control or more as active, and values a quarter to a half above the control carry no call in these data; other NCI protocols may use other cut-offs. Some T/C values are followed by the survivors on the day toxicity was checked, most often the fifth; where none is given, no animal had died by that day. Additions like (4×) say how often a value occurs here.

Tested on: BDF1 mice, P388 leukemia ip, median survival T/C
Assay: NCI In Vivo Anticancer Drug Screen. Data for tumor model P388 Leukemia (intraperitoneal) in B6D2F1 (BDF1) mice
Conditions: T/C endpoint: median survival time, vehicle: Klucel (hydroxypropylcellulose) (HPC), higher T/C = longer survival
Outline: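 Compound-treated tumour-bearing mice were compared with vehicle-treated controls. Survival was recorded, and the value is the treated-group measurement divided by the control-group measurement (T/C).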

[1] = dose: 50.0 mg/kg/injection, schedule: Q01DX009 (ip)
[2] = dose: 100.0 mg/kg/injection, schedule: Q01DX009 (ip)

With `O=C1CN=C(c2ccc[nH]2)c2cc(Cl)ccc2N1` the T/C (dose: 50.0 mg/kg/injection, schedule: Q01DX001 (ip), evaluated on day 30) was 88, 93 (2×), 95, 96 (2×), 97, 98, 100 (3×), 101 (3×), 104 (2×), 105, 106, 109 (2×), 111, 112, 114 (2×), 115, 120, 123, 127, 128 % of control, the T/C (dose: 50.0 mg/kg/injection, schedule: Q01DX001 (ip), evaluated on day 35) was 103 and 107 % of control and the survivor count (dose: 50.0 mg/kg/injection, schedule: Q01DX001 (ip)) was 3 of 3. The T/C (dose: 50.0 mg/kg/injection, schedule: Q01DX005 (ip), evaluated on day 30) was 91 [5 of 6 alive], 92 (3×), 99, 100 (2×), 103, 104 (2×), 105 (3×), 106, 108 (2×), 109, 110, 111, 112 (3×), 113, 115 (2×), 117, 118, 120, 121, 122, 123, 128 % of control, the T/C (dose: 50.0 mg/kg/injection, schedule: Q01DX005 (ip), evaluated on day 35) was 99 % of control and the survivor count (dose: 50.0 mg/kg/injection, schedule: Q01DX005 (ip)) was 3 of 3 and 6 of 6. For the same compound, the T/C [1] was 86 [5 of 6 alive], 88, 94, 98, 100 (2×), 102 (2×), 103 (2×), 104 (2×), 106, 107 (3×), 108 [5 of 6 alive], 109 (3×), 111, 117 (2×), 124, 125, 126, 127, 134, 144, 145 % of control (3×), the survivor count [1] was 3 of 3 and 6 of 6 and the T/C (dose: 50.0 mg/kg/injection, schedule: Q04DX002 (ip), evaluated on day 30) was 91, 93, 97, 98 (2×), 100 (3×), 101, 102 (3×), 103, 105 (2×), 107 (4×), 109, 110, 112 (3×), 113, 114, 116, 117, 121, 127, 128 % of control. For the same compound, the T/C (dose: 50.0 mg/kg/injection, schedule: Q04DX002 (ip), evaluated on day 35) was 103 % of control, the survivor count (dose: 50.0 mg/kg/injection, schedule: Q04DX002 (ip)) was 3 of 3 and 6 of 6 and the T/C (dose: 50.0 mg/kg/injection, schedule: Q04DX003 (ip), evaluated on day 30) was 87, 90, 97, 98 (2×), 100 (2×), 101, 102, 103 (4×), 104, 105 [2 of 3 alive], 106, 108, 109 (4×), 110 (2×), 111, 112 (2×), 113 (2×), 116, 122, 128 % of control. For the same compound, the T/C (dose: 50.0 mg/kg/injection, schedule: Q04DX003 (ip), evaluated on day 35) was 102 and 118 % of control, the survivor count (dose: 50.0 mg/kg/injection, schedule: Q04DX003 (ip)) was 4 of 6, 3 of 3, 6 of 6 and the T/C (dose: 100.0 mg/kg/injection, schedule: Q01DX001 (ip), evaluated on day 30) was 90, 93 (2×), 94, 96, 97, 98, 99 [4 of 6 alive], 100 (2×), 101 (2×), 102 (2×), 104 (3×), 105, 106, 107 (2×), 109, 111, 114 (2×), 117 (2×), 119 % of control. For the same compound, the T/C (dose: 100.0 mg/kg/injection, schedule: Q01DX001 (ip), evaluated on day 35) was 103 and 127 % of control, the survivor count (dose: 100.0 mg/kg/injection, schedule: Q01DX001 (ip)) was 3 of 3 and 6 of 6 and the T/C (dose: 100.0 mg/kg/injection, schedule: Q01DX005 (ip), evaluated on day 30) was 88, 90, 91, 97, 99, 100 (2×), 107 (2×), 110, 112 (2×), 113 (2×), 114 (2×), 116, 117, 119, 120 (2×), 121 (2×), 122, 123, 125 (2×), 127, 128, 130, 134, 137, 140, 145 % of control. For the same compound, the T/C (dose: 100.0 mg/kg/injection, schedule: Q01DX005 (ip), evaluated on day 35) was 102 % of control, the T/C [2] was 91, 92 [2 of 3 alive], 96, 97, 98 (2×), 100 (2×), 102, 106 (2×), 107, 109, 110, 111, 113, 116, 117, 118 (2×), 120, 122, 125, 126, 127, 129, 133, 135, 145 (2×), 146 % of control and the survivor count [2] was 0 of 3 and 6 of 6. For the same compound, the T/C (dose: 100.0 mg/kg/injection, schedule: Q04DX002 (ip), evaluated on day 30) was 86, 88, 93 (3×), 95 (2×), 97, 99 (3×), 100, 101, 103, 105, 105 [5 of 6 alive], 106, 107, 108 (2×), 109 (3×), 110 (2×), 111 (2×), 112 (3×), 114 (2×), 135 % of control, the T/C (dose: 100.0 mg/kg/injection, schedule: Q04DX002 (ip), evaluated on day 35) was 106 % of control and the T/C (dose: 100.0 mg/kg/injection, schedule: Q04DX003 (ip), evaluated on day 30) was 94, 95 (3×), 100 (2×), 101, 104 (3×), 106, 107 (3×), 108, 109 (3×), 112 (2×), 113, 114 (2×), 114 [2 of 3 alive], 115, 118 (2×), 119, 121, 127 % of control. The T/C (dose: 100.0 mg/kg/injection, schedule: Q04DX003 (ip), evaluated on day 35) was 98 [5 of 6 alive] and 102 % of control, the survivor count (dose: 100.0 mg/kg/injection, schedule: Q04DX003 (ip)) was 1 of 3, 3 of 3, 6 of 6 and the T/C (dose: 200.0 mg/kg/injection, schedule: Q01DX001 (ip), evaluated on day 30) was 96 (2×), 100 (2×), 102 (2×), 104 (5×), 104 [5 of 6 alive], 106, 107, 108 (3×), 109, 111 [5 of 6 alive], 115, 115 [2 of 3 alive], 117, 118, 123, 125 [2 of 3 alive], 132 % of control (2×).
